Assay results: publication PMC8175582
Results are given in words; binding and its absence hold for the method and conditions named. In cells and extracts the contact can be indirect. Some binding calls cover weakened binding; strength is not graded here.

Amino acid sequences for entries named in this document (tags omitted).
UniProt P48431: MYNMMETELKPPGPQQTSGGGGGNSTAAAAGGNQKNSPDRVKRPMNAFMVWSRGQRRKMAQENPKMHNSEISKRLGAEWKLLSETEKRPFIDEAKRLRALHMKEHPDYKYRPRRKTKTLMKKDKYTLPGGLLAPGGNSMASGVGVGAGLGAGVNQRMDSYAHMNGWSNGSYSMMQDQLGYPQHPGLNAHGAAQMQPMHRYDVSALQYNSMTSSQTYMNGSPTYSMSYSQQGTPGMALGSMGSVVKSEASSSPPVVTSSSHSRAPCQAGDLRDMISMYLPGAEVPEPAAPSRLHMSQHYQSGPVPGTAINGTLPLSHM
UniProt P40763: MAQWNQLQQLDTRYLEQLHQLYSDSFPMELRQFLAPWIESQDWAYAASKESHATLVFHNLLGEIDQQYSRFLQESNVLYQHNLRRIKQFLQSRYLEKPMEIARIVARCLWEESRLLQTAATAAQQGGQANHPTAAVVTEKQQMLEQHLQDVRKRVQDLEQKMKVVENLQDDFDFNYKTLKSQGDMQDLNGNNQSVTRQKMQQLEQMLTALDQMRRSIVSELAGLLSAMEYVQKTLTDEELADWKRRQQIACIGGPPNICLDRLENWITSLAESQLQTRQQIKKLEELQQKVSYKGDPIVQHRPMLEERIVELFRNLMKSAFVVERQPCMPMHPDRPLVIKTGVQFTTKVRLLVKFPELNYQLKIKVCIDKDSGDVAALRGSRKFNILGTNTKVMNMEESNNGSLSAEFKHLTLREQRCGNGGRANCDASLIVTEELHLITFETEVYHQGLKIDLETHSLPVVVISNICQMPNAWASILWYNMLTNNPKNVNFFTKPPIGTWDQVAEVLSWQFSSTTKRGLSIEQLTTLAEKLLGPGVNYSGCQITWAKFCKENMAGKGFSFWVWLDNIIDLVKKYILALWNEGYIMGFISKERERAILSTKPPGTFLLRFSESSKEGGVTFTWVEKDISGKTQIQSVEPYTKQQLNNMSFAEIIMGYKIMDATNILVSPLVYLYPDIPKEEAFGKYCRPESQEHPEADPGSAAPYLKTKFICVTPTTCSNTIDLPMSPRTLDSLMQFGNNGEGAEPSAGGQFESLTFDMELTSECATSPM

Tests used:
[1] = molecular target: T1, F-box protein 15 (FBXO15), endogenous in MCF7 cells (human (endogenous in MCF7)) (UniProt Q8NCQ5); assay: proximity ligation; PLA in fixed MCF7 cells with mouse anti-SOX2 or anti-STAT3 and rabbit anti-FBXO15; dots per cell counted with ImageJ
T1 sequence: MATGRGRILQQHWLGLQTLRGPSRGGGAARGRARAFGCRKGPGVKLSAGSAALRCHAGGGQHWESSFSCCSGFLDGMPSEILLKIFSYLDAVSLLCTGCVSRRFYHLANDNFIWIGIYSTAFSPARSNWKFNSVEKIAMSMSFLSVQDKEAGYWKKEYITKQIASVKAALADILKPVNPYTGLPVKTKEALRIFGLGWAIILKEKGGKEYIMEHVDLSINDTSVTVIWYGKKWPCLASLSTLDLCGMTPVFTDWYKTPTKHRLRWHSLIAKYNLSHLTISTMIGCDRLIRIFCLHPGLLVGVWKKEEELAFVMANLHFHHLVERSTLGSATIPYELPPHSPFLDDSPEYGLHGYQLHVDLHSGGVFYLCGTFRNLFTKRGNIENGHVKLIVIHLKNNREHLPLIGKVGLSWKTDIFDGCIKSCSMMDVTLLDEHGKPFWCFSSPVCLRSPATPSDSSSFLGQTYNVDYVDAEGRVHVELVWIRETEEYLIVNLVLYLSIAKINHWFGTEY

[2] = molecular target: T1, F-box protein 15 (FBXO15), endogenous in MCF7 cells (human (endogenous in MCF7)); assay: co-IP; MCF7 cell lysate immunoprecipitated with an FBXO15 antibody or IgG control; endogenous proteins; cells treated with MG132 (10 μM) for 6 h before harvest
[3] = molecular target: T2, FBXO15 in HEK293T cells (co-immunoprecipitation) (UniProt Q8NCQ5); assay: co-IP; HEK293T cells treated with MG132 (10 μM) for 6 h; lysates immunoprecipitated for SOX2 or STAT3 and for the Myc- or Myc/Flag-tagged protein
T2 sequence: T1 sequence

Substance | binding [1] | binding [2] | binding [3]
SOX2, endogenous in MCF7 cells (from UniProt P48431 1-317) | binds | binds | –
STAT3 in HEK293T cells (co-immunoprecipitation) (from UniProt P40763 1-770) | – | – | binds
SOX2 in HEK293T cells (co-immunoprecipitation) (from UniProt P48431 1-317) | – | – | binds
STAT3, endogenous in MCF7 cells (from UniProt P40763 1-770) | binds | binds | –
